Values quoted from earlier work as cited in patent US12329745B2, “Methods and compositions for treating glucocorticoid excess” (Sparrow Pharmaceuticals, Inc., priority 2022, dated 2025).

System: human HSD-1
Conditions: cited from earlier work

| Structure (SMILES) | ternary complex with NADPH in structure bound to HSD-1 |
| --- | --- |
| CCCSc1nc(N2CCC[C@@H](CC(=O)O)C2)ccc1C(=O)NC1CCCCC1 [AZD4017, (S)-2-(1-(5-(cyclohexylcarbamoyl)-6-(propylthio)pyridin-2-yl)piperidin-3-yl)acetic acid] | do not form ternary complexes that include NADPH or do so only via water molecules |
| CC(C)(C)c1c(C(=O)NC2C3CC4CC(C3)CC2C4)cnn1-c1ccc(C(=O)O)cc1 (centres unmarked) [AZD8329, 4-(4-(((1r,3r,5r,7r)-adamantan-2-yl)carbamoyl)-5-(tert-butyl)-1H-pyrazol-1-yl)benzoic acid] | do not form ternary complexes that include NADPH or do so only via water molecules |

Same assay, conditions: structure bound to HSD-1; cited from earlier work

| Structure (SMILES) | Backbone interaction | K187 interaction | S170 interaction | Y183 interaction |
| --- | --- | --- | --- | --- |
| CC(C)(O)c1cccn2c(C3(c4ccc(Cl)cc4)CC3)nnc12 [BMS-823778, 2-(3-(1-(4-chlorophenyl)cyclopropyl)-[1,2,4]triazolo[4,3-a]pyridin-8-yl)propan-2-ol] | No | No | Yes | Yes |
| COc1ccc(OC(C)(C)C(=O)NC2C3CC4CC2CC(C(N)=O)(C4)C3)cc1 [Compound A, (1s,3R,5S,7s)-4-(2-(4-methoxyphenoxy)-2-methylpropanamido)adamantane-1-carboxamide] | No | No | Yes | Yes |
| O=C(N1CCC(c2cnc[nH]2)CC1)N1CCCc2ccccc21 [Compound B, 3,4-dihydroquinolin-1(2H)-yl[4-(1H-imidazol-5-yl)piperidin-1-yl]methanone] | No | No | Yes | Yes |
| CC(C)[C@H]1SC(Nc2ccccc2F)=NC1=O [Compound C, (5R)-2-[(2-fluorophenyl)amino]-5-(1-methylethyl)-1,3-thiazol-4(5H)-one] | No | No | Yes | Yes |
| C[C@](O)(c1ccc(S(=O)(=O)c2ccc(C#N)cc2CCF)cc1)C(F)(F)F [Compound D, 3-(2-fluoroethyl)-4-((4-[(2S)-1,1,1-trifluoro-2-hydroxypropan-2-yl]phenyl)sulfonyl)benzonitrile] | Yes | No | No | No |
| CC(C)(C)N1CCN(c2ccc(N3CCN(C(=O)NC4C5CC6CC4CC(C(N)=O)(C6)C5)c4ccccc43)nc2)CC1 [SAR184841, 4-(5-(4-(tert-butyl)piperazin-1-yl)pyridin-2-yl)-N-((1R,3S,5s,7s)-5-carbamoyladamantan-2-yl)-3,4-dihydroquinoxaline-1(2H)-carboxamide] | No | No | Yes | Yes |
